The test system of the test is L1210 leukemia ip in BDF1 mice, survival T/C. Put plainly: NCI In Vivo Anticancer Drug Screen. Data for tumor model L1210 Leukemia (intraperitoneal) in B6D2F1 (BDF1) mice. The note with it: T/C endpoint: mean survival time, higher T/C = longer survival.
Where [1] appears, read: dose: 100.0 mg/kg/injection, schedule: Q01DX009 (ip), vehicle: saline.
[2] abbreviates: dose: 200.0 mg/kg/injection, schedule: Q04DX003 (ip), vehicle: saline.
Setting [3] is: dose: 300.0 mg/kg/injection, schedule: Q01DX001 (ip), vehicle: saline.
[4] abbreviates: dose: 400.0 mg/kg/injection, schedule: Q01DX001 (ip), vehicle: saline.

The list shows only some results of the screen, not a fair sample: it gathers tests that were run many times, whatever their T/C, doses with no T/C, and many T/C values between a quarter and a half above the control. Other doses and runs of a compound stand elsewhere. T/C gives the treated animals as a percentage of the vehicle group. Some doses have a count of surviving animals in place of a T/C: the source files T/C as zero there, which appears to mark a toxic dose or a test without result, not a measured value. Some doses without a T/C left all or most animals alive at the check, yet need not have been tolerated: survival well below the control is almost never listed, so the zero probably covers shortened survival too. Counts of survivors are from the toxicity check (mostly the fifth day) where no day follows; animals may have died later. Schedules are NCI's codes, read here as Q, the interval in days (D) or hours (H), X, the number of doses. Some schedules carry Z or #; the key to these is not given. For survival time, this PubChem deposit counts one and a half times the control or more as active, and values a quarter to a half above the control carry no call in these data; other NCI protocols may use other cut-offs. Some entries hold several experiments; their values stand side by side, smallest first. Additions like (4×) stand for listed records that agree. Some T/C values are followed by the survivors on the day toxicity was checked, most often the fifth; where none is given, no animal had died by that day.

Among the data in PubChem BioAssay AID248 (DTP/NCI, 2004) are T/C and survivor count values, retold here.

In the case of `CCCC(=O)OCC1OC(n2cnc3c(=S)nc[nH]c32)C(OC(=O)CCC)C1OC(=O)CCC` (stereo not given), the T/C is 138 % of control (dose: 12.5 mg/kg/injection, schedule: Q01DX009 (ip), vehicle: saline with Tween-80); 135 % of control (dose: 12.5 mg/kg/injection, schedule: Q01DX Z (ip), vehicle: other); 127 % of control (dose: 19.0 mg/kg/injection, schedule: Q04DX003 (ip), vehicle: saline); 131 % of control (dose: 25.0 mg/kg/injection, schedule: Q01DX009 (ip), vehicle: saline); 130 % of control (dose: 29.0 mg/kg/injection, schedule: Q04DX003 (ip), vehicle: saline); 133 % of control (dose: 44.0 mg/kg/injection, schedule: Q01DX Z (ip), vehicle: carboxymethylcellulose (CMC)). The T/C is, setting by setting: (dose: 50.0 mg/kg/injection, schedule: Q01DX001 (ip), vehicle: saline) 128 % of control; (dose: 50.0 mg/kg/injection, schedule: Q01DX009 (ip), vehicle: saline) 138 % of control; (dose: 50.0 mg/kg/injection, schedule: Q04DX003 (ip), vehicle: saline) 135 % of control; (dose: 67.0 mg/kg/injection, schedule: Q01DX Z (ip), vehicle: carboxymethylcellulose (CMC)) 141 % of control; (dose: 100.0 mg/kg/injection, schedule: Q01DX001 (ip), vehicle: saline) 141 and 145 % of control; under setting [1], 136 % of control. Besides, the T/C (dose: 100.0 mg/kg/injection, schedule: Q01DX Z (ip), vehicle: carboxymethylcellulose (CMC)) was 143 % of control; the T/C (dose: 100.0 mg/kg/injection, schedule: Q04DX003 (ip), vehicle: acetone) was 132 % of control; the T/C (dose: 100.0 mg/kg/injection, schedule: Q04DX003 (ip), vehicle: saline) is 143 % of control; the T/C (dose: 132.0 mg/kg/injection, schedule: Q01DX001 (ip), vehicle: saline) is 131 and 137 % of control; the T/C (dose: 132.0 mg/kg/injection, schedule: Q04DX003 (ip), vehicle: acetone) was 142 % of control; the T/C (dose: 132.0 mg/kg/injection, schedule: Q04DX003 (ip), vehicle: saline) was 138 % of control. The T/C was 133 % of control (dose: 150.0 mg/kg/injection, schedule: Q01DX Z (ip), vehicle: carboxymethylcellulose (CMC)); 137 (2×), 141, 151 % of control (dose: 200.0 mg/kg/injection, schedule: Q01DX001 (ip), vehicle: saline); 142 and 145 % of control (dose: 200.0 mg/kg/injection, schedule: Q04DX003 (ip), vehicle: acetone); 136 % of control [5 of 6 alive] under setting [2]; 136 % of control under setting [3]; 140 % of control (dose: 300.0 mg/kg/injection, schedule: Q04DX003 (ip), vehicle: acetone). Besides, the T/C reads like this: (dose: 300.0 mg/kg/injection, schedule: Q04DX003 (ip), vehicle: saline) 140 % of control; under setting [4], 136 % of control; (dose: 400.0 mg/kg/injection, schedule: Q04DX003 (ip), vehicle: acetone) 138 % of control. Further, the survivor count is reported as 5 of 6 (dose: 100.0 mg/kg/injection, schedule: Q01DX Z (ip), vehicle: other); 6 of 6 (dose: 200.0 mg/kg/injection, schedule: Q01DX009 (ip), vehicle: saline); 2 of 6 (dose: 200.0 mg/kg/injection, schedule: Q01DX Z (ip), vehicle: other); 3 of 6 (dose: 400.0 mg/kg/injection, schedule: Q01DX Z (ip), vehicle: other); 0 of 6 (dose: 800.0 mg/kg/injection, schedule: Q01DX Z (ip), vehicle: other).

For the molecule `CSc1nc(C)c(Br)c(N2CC2)n1`, the survivor count is on record as 0 of 6 (dose: 25.0 mg/kg/injection, schedule: Q01DX Z (ip), vehicle: methylcellulose (MC)); 0 of 6 (dose: 100.0 mg/kg/injection, schedule: Q01DX Z (ip), vehicle: methylcellulose (MC)); 0 of 6 (dose: 200.0 mg/kg/injection, schedule: Q01DX Z (ip), vehicle: methylcellulose (MC)).

For `CCCNC1=C(C)C(=O)C2=C(C1=O)[C@H](COC(N)=O)[C@]1(OC)[C@@H]3N[C@@H]3CN21`, the T/C (dose: 1.5 mg/kg/injection, schedule: Q01DX009 (ip), vehicle: acetone) is 129 % of control; the T/C (dose: 2.7 mg/kg/injection, schedule: Q01DX009 (ip), vehicle: acetone) was 145 % of control; the T/C (dose: 6.6 mg/kg/injection, schedule: Q01DX001 (ip), vehicle: acetone) was 135 % of control; the T/C (dose: 9.9 mg/kg/injection, schedule: Q01DX001 (ip), vehicle: acetone) is 143 % of control.

In the case of `C=CCOCC(O)CN(C)CCCC` (stereo not given), the survivor count was 0 of 6 (dose: 200.0 mg/kg/injection, schedule: Q01DX009 (ip), vehicle: Klucel (hydroxypropylcellulose) (HPC)); 0 of 6 under setting [2]; 0 of 6 (dose: 400.0 mg/kg/injection, schedule: Q04DX003 (ip), vehicle: saline).

Take `CN=C(N)N/N=C/c1ccccc1`: the survivor count is listed as 0 of 6 (dose: 62.5 mg/kg/injection, schedule: Q04DX003 (ip), vehicle: saline); 0 of 6 (dose: 125.0 mg/kg/injection, schedule: Q04DX003 (ip), vehicle: saline); 0 of 6 (dose: 250.0 mg/kg/injection, schedule: Q04DX003 (ip), vehicle: saline).

Consider `CN=C(N)Nc1ccc(NC(=O)Nc2ccc(NC(=O)Nc3ccc(NC(N)=NC)cc3)cc2)cc1`, for which the T/C reads like this: (dose: 15.0 mg/kg/injection, schedule: Q01DX Z (ip), vehicle: carboxymethylcellulose (CMC)) 132 % of control; (dose: 62.0 mg/kg/injection, schedule: Q01DX Z (ip), vehicle: carboxymethylcellulose (CMC)) 130 % of control. Further, the survivor count runs as follows: (dose: 125.0 mg/kg/injection, schedule: Q01DX Z (ip), vehicle: carboxymethylcellulose (CMC)) 5 of 6; (dose: 250.0 mg/kg/injection, schedule: Q01DX Z (ip), vehicle: carboxymethylcellulose (CMC)) 2 of 6; (dose: 500.0 mg/kg/injection, schedule: Q01DX Z (ip), vehicle: carboxymethylcellulose (CMC)) 0 of 6.

With `CCC(CC)(COC(=O)c1ccc(N)cc1)C1CCCCC1`, the survivor count is on record as 6 of 6 (dose: 75.0 mg/kg/injection, schedule: Q01DX001 (ip), vehicle: carboxymethylcellulose (CMC)) and 1 of 6 (dose: 300.0 mg/kg/injection, schedule: Q01DX001 (ip), vehicle: carboxymethylcellulose (CMC)).

In the case of `O=C(C[N+]12CC=C(CO)C1C(O)CC2)c1ccc(Br)cc1` (stereo not given), the survivor count under setting [4] is recorded as 3 of 6.

Take `c1ccc(C(Nc2ccnc3nc[nH]c23)c2ccccc2)cc1`: the survivor count runs as follows: (dose: 200.0 mg/kg/injection, schedule: Q01DX009 (ip), vehicle: saline with Tween-80) 0 of 6; (dose: 400.0 mg/kg/injection, schedule: Q01DX001 (ip), vehicle: saline with Tween-80) 0 of 6.

For the molecule `Cc1ccc(C(SCC(N)C(=O)O)(c2ccccc2)c2ccccc2)cc1` (stereo not given), where the note is “dose: 6.5 mg/kg/injection, schedule: Q01DX009 (ip), vehicle: saline”, the T/C was 140 % of control. Moreover, the survivor count by setting is: (dose: 100.0 mg/kg/injection, schedule: Q01DX009 (ip), vehicle: other) 5 of 6; under setting [1], 7 of 10; (dose: 200.0 mg/kg/injection, schedule: Q01DX009 (ip), vehicle: other) 4 of 6.

For the molecule `NC(N)=NCCCCNCCCN=C(N)N`, under setting [3], the survivor count is on record as 0 of 6.

Regarding `Cc1cccc(C)c1NC(=O)Nc1ncccn1`, the survivor count (dose: 100.0 mg/kg/injection, schedule: Q04DX002 (ip), vehicle: Klucel (hydroxypropylcellulose) (HPC)) is recorded as 3 of 3.

As to `O=C(NCCCl)NC1CS(=O)(=O)CS(=O)(=O)C1`, the survivor count (dose: 150.0 mg/kg/injection, schedule: Q01DX001 (ip), vehicle: other) was 2 of 6 and the survivor count (dose: 300.0 mg/kg/injection, schedule: Q01DX001 (ip), vehicle: other) is 0 of 6.

With `Cc1cc2ccccc2c(N=Cc2cc(Br)cc(Br)c2O)c1C#N`, the survivor count reads like this: (dose: 100.0 mg/kg/injection, schedule: Q01DX003 (ip), vehicle: saline with Tween-80) 3 of 3; (dose: 400.0 mg/kg/injection, schedule: Q01DX003 (ip), vehicle: saline with Tween-80) 3 of 3.
